Measurements as given in the supplement of paper PMC10849652.
The other results are listed elsewhere or left out.

Protein sequences, listed by entry. Tags and fused reporters are not part of them. Lines headed by an entry give the natural chain unless they say otherwise; changes in a name come on top.
UniProt P30740: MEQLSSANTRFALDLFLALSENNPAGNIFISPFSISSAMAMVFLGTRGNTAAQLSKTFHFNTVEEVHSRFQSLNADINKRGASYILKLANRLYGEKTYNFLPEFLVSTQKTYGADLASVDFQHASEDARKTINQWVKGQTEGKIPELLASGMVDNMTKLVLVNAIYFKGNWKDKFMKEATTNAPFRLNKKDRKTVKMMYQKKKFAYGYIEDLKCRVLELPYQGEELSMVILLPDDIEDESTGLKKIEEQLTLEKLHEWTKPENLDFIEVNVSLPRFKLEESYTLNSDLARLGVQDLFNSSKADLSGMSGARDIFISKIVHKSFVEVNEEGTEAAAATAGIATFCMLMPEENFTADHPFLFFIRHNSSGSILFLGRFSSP
UniProt Q99442: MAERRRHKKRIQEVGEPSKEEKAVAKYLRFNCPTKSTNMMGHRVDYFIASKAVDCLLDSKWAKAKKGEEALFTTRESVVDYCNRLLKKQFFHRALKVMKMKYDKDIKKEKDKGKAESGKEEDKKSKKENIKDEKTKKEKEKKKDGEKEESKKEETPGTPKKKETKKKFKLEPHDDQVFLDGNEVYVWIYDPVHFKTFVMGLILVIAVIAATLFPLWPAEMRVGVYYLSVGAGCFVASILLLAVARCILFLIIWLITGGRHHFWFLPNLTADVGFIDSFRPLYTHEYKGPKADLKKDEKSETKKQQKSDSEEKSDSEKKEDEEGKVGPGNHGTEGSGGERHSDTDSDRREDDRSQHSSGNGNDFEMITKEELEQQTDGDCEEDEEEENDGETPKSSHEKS
UniProt P50452: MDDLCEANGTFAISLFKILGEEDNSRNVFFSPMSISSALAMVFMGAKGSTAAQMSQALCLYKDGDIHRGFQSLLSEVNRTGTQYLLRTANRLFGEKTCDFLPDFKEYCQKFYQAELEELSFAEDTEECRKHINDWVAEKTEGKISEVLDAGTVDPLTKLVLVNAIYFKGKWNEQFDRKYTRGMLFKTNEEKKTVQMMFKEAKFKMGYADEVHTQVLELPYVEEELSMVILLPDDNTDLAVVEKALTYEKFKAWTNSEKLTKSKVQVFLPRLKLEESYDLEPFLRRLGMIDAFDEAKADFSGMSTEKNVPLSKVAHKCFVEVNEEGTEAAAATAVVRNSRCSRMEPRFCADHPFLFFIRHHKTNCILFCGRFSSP
UniProt Q9H9B4: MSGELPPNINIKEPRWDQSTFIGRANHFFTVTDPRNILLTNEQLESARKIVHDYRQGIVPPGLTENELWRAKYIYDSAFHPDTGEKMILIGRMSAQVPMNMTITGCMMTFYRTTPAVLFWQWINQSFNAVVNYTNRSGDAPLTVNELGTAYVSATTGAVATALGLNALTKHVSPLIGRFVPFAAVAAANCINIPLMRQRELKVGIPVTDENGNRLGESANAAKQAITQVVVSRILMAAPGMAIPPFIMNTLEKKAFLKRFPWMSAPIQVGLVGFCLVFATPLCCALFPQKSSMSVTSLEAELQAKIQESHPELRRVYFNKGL
UniProt P01008, whole entry, looked up: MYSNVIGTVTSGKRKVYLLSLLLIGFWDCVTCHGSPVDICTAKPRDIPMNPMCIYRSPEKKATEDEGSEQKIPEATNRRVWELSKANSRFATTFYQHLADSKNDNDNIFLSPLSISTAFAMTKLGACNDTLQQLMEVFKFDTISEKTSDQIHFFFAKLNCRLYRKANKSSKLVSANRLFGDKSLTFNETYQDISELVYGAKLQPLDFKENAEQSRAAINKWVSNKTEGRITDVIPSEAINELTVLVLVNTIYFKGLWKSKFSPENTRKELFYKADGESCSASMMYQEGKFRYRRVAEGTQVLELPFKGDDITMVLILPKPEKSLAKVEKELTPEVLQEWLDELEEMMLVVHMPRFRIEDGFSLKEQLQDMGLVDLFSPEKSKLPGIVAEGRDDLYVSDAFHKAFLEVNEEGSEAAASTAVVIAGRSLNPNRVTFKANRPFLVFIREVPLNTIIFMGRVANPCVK
UniProt Q9UGK8: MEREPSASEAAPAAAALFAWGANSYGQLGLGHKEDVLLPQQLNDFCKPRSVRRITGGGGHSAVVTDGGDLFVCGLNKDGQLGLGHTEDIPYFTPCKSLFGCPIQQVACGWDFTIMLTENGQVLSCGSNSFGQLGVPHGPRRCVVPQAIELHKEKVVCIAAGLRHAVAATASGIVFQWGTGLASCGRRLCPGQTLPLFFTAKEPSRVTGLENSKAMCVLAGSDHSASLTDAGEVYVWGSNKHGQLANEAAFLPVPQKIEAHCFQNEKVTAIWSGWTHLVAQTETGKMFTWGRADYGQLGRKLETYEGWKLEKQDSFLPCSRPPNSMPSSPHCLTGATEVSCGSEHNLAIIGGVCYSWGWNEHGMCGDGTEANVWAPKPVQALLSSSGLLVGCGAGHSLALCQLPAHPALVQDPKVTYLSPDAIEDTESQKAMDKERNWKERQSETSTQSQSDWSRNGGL
UniProt Q14141: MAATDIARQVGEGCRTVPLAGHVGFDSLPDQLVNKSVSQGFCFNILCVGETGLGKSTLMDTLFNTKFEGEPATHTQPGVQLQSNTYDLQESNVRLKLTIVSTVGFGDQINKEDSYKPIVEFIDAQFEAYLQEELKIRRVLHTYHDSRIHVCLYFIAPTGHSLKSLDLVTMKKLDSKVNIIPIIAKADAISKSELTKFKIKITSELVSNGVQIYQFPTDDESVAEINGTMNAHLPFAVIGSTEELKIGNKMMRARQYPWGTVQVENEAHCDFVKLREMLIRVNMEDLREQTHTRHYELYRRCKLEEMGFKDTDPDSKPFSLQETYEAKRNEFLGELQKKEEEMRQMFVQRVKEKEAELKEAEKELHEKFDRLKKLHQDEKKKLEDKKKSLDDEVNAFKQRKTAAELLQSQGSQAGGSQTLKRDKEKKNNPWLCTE
UniProt P31947: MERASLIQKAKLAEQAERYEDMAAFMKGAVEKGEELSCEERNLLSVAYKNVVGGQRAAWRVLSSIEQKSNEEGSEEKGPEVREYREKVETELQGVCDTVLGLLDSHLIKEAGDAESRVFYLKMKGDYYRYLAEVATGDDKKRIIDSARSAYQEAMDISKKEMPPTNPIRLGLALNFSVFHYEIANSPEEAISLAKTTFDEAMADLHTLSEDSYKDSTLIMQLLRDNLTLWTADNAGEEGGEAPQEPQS
UniProt Q9UHD8: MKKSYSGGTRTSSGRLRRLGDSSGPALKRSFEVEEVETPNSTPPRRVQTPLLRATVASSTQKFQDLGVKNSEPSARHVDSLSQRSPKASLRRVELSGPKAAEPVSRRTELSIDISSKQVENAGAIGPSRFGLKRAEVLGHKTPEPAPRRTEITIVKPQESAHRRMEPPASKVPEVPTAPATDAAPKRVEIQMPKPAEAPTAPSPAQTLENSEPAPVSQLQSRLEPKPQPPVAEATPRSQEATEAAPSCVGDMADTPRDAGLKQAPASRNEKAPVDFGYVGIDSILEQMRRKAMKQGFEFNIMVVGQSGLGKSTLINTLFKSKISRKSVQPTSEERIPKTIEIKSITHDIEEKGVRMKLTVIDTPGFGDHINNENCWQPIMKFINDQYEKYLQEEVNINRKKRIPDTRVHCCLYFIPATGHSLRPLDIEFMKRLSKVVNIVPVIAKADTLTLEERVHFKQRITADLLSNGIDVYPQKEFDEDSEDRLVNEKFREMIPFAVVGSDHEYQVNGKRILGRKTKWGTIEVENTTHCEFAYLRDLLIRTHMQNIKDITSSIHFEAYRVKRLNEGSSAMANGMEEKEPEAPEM
UniProt Q96EB6: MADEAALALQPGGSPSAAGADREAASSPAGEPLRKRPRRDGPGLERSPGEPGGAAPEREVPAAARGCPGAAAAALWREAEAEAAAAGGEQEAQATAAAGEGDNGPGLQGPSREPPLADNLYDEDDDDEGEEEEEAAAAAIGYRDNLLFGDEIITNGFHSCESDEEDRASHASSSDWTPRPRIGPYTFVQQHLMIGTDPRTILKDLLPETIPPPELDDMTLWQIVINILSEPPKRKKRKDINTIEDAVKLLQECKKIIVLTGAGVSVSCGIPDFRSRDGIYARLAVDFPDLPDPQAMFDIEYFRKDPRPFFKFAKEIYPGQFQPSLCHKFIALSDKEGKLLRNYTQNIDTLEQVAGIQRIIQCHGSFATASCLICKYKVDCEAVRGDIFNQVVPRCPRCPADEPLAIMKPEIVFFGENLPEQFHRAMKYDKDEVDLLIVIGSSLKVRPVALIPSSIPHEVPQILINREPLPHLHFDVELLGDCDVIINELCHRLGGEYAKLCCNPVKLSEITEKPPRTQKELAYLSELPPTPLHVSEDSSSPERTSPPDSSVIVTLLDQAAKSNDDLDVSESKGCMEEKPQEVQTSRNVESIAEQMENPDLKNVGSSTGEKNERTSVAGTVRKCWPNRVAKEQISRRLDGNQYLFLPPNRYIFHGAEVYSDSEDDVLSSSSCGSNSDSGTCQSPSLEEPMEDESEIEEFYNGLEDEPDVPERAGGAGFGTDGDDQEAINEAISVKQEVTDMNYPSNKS
UniProt Q9Y371: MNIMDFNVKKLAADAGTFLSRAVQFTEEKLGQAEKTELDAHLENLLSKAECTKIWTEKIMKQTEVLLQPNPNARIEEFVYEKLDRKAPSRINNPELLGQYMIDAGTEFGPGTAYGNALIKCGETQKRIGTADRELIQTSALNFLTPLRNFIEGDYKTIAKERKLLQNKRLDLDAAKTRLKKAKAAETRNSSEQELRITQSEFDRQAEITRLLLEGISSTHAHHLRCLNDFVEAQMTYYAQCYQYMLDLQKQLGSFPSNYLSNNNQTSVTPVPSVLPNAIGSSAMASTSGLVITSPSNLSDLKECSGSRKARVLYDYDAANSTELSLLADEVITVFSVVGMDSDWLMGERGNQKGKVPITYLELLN
UniProt Q01105, whole entry, looked up: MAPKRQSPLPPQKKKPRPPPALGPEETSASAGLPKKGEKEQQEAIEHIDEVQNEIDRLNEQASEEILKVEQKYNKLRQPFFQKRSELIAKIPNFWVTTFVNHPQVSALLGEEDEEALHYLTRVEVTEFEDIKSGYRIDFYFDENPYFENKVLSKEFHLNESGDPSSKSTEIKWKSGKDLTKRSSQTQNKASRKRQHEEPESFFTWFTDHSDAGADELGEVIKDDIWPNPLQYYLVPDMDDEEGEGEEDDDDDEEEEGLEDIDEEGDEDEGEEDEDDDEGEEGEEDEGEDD
UniProt P61619, whole entry, looked up: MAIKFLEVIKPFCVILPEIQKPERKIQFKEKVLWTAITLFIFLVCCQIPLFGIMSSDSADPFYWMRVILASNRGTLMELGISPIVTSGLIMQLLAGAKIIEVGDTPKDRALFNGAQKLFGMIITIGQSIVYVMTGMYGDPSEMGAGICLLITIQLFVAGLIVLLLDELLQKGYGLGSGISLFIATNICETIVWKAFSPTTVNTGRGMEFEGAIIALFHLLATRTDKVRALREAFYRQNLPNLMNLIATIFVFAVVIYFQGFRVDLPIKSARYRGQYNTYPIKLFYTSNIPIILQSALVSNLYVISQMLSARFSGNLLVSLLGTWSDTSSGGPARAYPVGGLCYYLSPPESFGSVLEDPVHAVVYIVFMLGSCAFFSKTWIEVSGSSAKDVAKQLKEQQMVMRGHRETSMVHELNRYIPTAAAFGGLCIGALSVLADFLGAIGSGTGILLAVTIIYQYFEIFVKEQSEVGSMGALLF
UniProt Q8N6T7, whole entry, looked up: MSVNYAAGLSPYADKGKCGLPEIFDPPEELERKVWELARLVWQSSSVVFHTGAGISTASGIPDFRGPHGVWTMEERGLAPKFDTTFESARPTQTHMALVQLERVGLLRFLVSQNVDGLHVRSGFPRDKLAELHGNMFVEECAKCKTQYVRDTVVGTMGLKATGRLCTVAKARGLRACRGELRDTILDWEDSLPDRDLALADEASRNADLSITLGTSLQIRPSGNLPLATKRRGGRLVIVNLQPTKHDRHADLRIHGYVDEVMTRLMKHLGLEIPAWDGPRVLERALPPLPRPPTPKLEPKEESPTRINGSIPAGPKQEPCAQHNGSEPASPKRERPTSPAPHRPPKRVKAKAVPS

Experiments:
Experiment in all cases: log2 fold change, soluble protein after heating vs DMSO (PISA); higher = thermal stabilisation; K562 cells, 10 uM, 30 min; active = over 0.2 and 3.5 SD of the protein, either way, in both replicates (recomputed)
saracatinib = compound: CN1CCN(CCOc2cc(OC3CCOCC3)c3c(Nc4c(Cl)ccc5c4OCO5)ncnc3c2)CC1 [saracatinib]
Summary of the method: (§1)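 For each measurement, 10 μM compound was applied for 30 min to K562 cells at 2×10^6 cells/mL. Aliquots were heated for 3 min across 48°C-58°C, pooled, and extracted in PBS with 0.5% NP-40 at 4°C; the supernatant after 21,000xg for 90 min was soluble protein. This was quantified by TMTpro 16plex LC-MS/MS with channel sums equalised, and thermal stability was reported relative to control samples from duplicates, on a log2 fold-change scale.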

sotrastaurin = compound: CN1CCN(c2nc(C3=C(c4c[nH]c5ccccc45)C(=O)NC3=O)c3ccccc3n2)CC1 [sotrastaurin]
Summary of the method: as §1

alvocidib = compound: CN1CC[C@H](c2c(O)cc(O)c3c(=O)cc(-c4ccccc4Cl)oc23)[C@H](O)C1 [alvocidib]
Summary of the method: as §1

Tubastatin A = compound: CN1CCc2c(c3ccccc3n2Cc2ccc(C(=O)NO)cc2)C1 [Tubastatin A]
Summary of the method: as §1

[1] = compound: CNC(=O)C1=CC=CC=C1NC2=NC(=NC=C2Cl)NC3=C(C=C(C=C3)N4CCOCC4)OC
Summary of the method: as §1

defactinib = compound: CNC(=O)c1ccc(Nc2ncc(C(F)(F)F)c(NCc3nccnc3N(C)S(C)(=O)=O)n2)cc1 [defactinib]
Summary of the method: as §1

rucaparib = compound: CNCc1ccc(-c2[nH]c3cc(F)cc4c3c2CCNC4=O)cc1 [rucaparib]
Summary of the method: as §1

[2] = compound: CNc1nc(-c2ccc3c(N)n[nH]c3c2)cc(N2C[C@@H](C(=O)NC3CCCCC3)CC[C@H]2C)n1
Summary of the method: as §1

encorafenib = compound: COC(=O)N[C@@H](C)CNc1nccc(-c2cn(C(C)C)nc2-c2cc(Cl)cc(NS(C)(=O)=O)c2F)n1 [encorafenib]
Summary of the method: as §1

[3] = compound: COC(=O)[C@H](CCSC)NC(=O)C1=C(C=C(C=C1)NC[C@H](CS)N)C2=CC=CC=C2
Summary of the method: as §1

[4] = compound: COC1=CC=C(C=C1)CN2C=CC3=C2C=C(C=C3)C(=O)NO
Summary of the method: as §1

filanesib = compound: CON(C)C(=O)N1N=C(c2cc(F)ccc2F)S[C@@]1(CCCN)c1ccccc1 [filanesib]
Summary of the method: as §1

zotarolimus = compound: CO[C@H]1C[C@@H]2CC[C@@H](C)[C@@](O)(O2)C(=O)C(=O)N2CCCC[C@H]2C(=O)O[C@H]([C@H](C)C[C@@H]2CC[C@H](n3cnnn3)[C@H](OC)C2)CC(=O)[C@H](C)/C=C(\C)[C@@H](O)[C@@H](OC)C(=O)[C@H](C)C[C@H](C)/C=C/C=C/C=C/1C [zotarolimus]
Summary of the method: as §1

idasanutlin = compound: COc1cc(C(=O)O)ccc1NC(=O)[C@@H]1N[C@@H](CC(C)(C)C)[C@](C#N)(c2ccc(Cl)cc2F)[C@H]1c1cccc(Cl)c1F [idasanutlin]
Summary of the method: as §1

alisertib = compound: COc1cc(Nc2ncc3c(n2)-c2ccc(Cl)cc2C(c2c(F)cccc2OC)=NC3)ccc1C(=O)O [alisertib]
Summary of the method: as §1

[5] = compound: COc1cc2nc(-c3cc(F)ccc3O)nc(N[C@@H]3CNC[C@H]3C(C)(C)O)c2cc1OC
Summary of the method: as §1

gefitinib = compound: COc1cc2ncnc(Nc3ccc(F)c(Cl)c3)c2cc1OCCCN1CCOCC1 [gefitinib]
Summary of the method: as §1

[6] = compound: COc1cccc2cc(-c3nc([C@H]4CC[C@H](C(=O)O)CC4)n4ncnc(N)c34)[nH]c12
Summary of the method: as §1

lapatinib = compound: CS(=O)(=O)CCNCc1ccc(-c2ccc3ncnc(Nc4ccc(OCc5cccc(F)c5)c(Cl)c4)c3c2)o1 [lapatinib]
Summary of the method: as §1

pictilisib = compound: CS(=O)(=O)N1CCN(Cc2cc3nc(-c4cccc5[nH]ncc45)nc(N4CCOCC4)c3s2)CC1 [pictilisib]
Summary of the method: as §1

Measured: log2 fold change

SERPINB1 (UniProt P30740)
inactive: saracatinib 0.028 | sotrastaurin 0.004 | alvocidib -0.033 | Tubastatin A -0.012 | [1] -0.01 | defactinib -0.01 | rucaparib -0.034 | [2] 0.006 | encorafenib -0.017 | [3] 0.035 | [4] -0.023 | filanesib -0.076 | zotarolimus 0.01 | idasanutlin -0.077 | alisertib -0.008 | [5] 0.016 | gefitinib -0.011 | [6] 0.032 | lapatinib -0.022 | pictilisib -0.017

SEC62 (UniProt Q99442)
inactive: saracatinib 0.057 | sotrastaurin 0.042 | alvocidib 0.002 | Tubastatin A -0.015 | [1] -0.034 | defactinib 0.021 | rucaparib 0.009 | [2] -0.011 | encorafenib -0.042 | [3] -0.009 | [4] 0 | filanesib 0.039 | zotarolimus -0.008 | idasanutlin 0.03 | alisertib 0.015 | [5] 0.047 | gefitinib 0.015 | [6] -0.029 | lapatinib -0.042 | pictilisib 0.061

SERPINB8 (UniProt P50452)
inactive: saracatinib 0.051 | sotrastaurin -0.008 | alvocidib 0.088 | Tubastatin A -0.068 | [1] -0.06 | defactinib -0.016 | rucaparib -0.103 | [2] -0.05 | encorafenib -0.034 | [3] 0.049 | [4] 0.04 | filanesib -0.002 | zotarolimus -0.071 | idasanutlin -0.026 | alisertib -0.255 | [5] 0.013 | gefitinib 0.049 | [6] 0.07 | lapatinib -0.001 | pictilisib -0.079

SFXN1 (UniProt Q9H9B4)
inactive: saracatinib 0.028 | sotrastaurin -0.026 | alvocidib 0.001 | Tubastatin A -0.017 | [1] -0.022 | defactinib -0.021 | rucaparib -0.02 | [2] -0.028 | encorafenib 0.011 | [3] 0.011 | [4] 0.086 | filanesib -0.11 | zotarolimus 0.009 | idasanutlin -0.097 | alisertib -0.064 | [5] -0.132 | gefitinib 0.003 | [6] 0.018 | lapatinib 0.017 | pictilisib -0.052

SETDB1 (UniProt Q15047)
inactive: saracatinib -0.041 | sotrastaurin -0.013 | alvocidib -0.055 | Tubastatin A 0.185 | [1] -0.067 | defactinib -0.068 | rucaparib 0.098 | [2] 0.055 | encorafenib -0.004 | [3] -0.032 | [4] 0.207 | filanesib 0.027 | zotarolimus 0.013 | idasanutlin -0.051 | alisertib -0.14 | [5] 0.303 | gefitinib 0.021 | [6] 0.018 | lapatinib -0.063 | pictilisib 0.15

SERPINC1 (UniProt P01008)
inactive: saracatinib 0.305 | sotrastaurin 0.277 | alvocidib 0.125 | Tubastatin A -0.175 | [1] 0.179 | defactinib -0.053 | rucaparib -0.16 | [2] 0.032 | encorafenib -0.027 | [3] 0.19 | [4] -0.19 | filanesib 0.091 | zotarolimus -0.057 | idasanutlin 0.088 | alisertib -0.059 | [5] -0.1 | gefitinib -0.072 | [6] 0.353 | lapatinib 0.002 | pictilisib -0.061

SERGEF (UniProt Q9UGK8)
inactive: saracatinib -0.021 | sotrastaurin -0.025 | alvocidib -0.155 | Tubastatin A -0.064 | [1] 0.008 | defactinib -0.061 | rucaparib -0.156 | [2] 0.151 | encorafenib 0.051 | [3] -0.067 | [4] -0.036 | filanesib -0.043 | zotarolimus 0.091 | idasanutlin -0.068 | alisertib -0.05 | [5] 0.083 | gefitinib -0.004 | [6] 0.015 | lapatinib -0.023 | pictilisib 0.086

SEPTIN6 (UniProt Q14141)
inactive: saracatinib 0.052 | sotrastaurin -0.023 | alvocidib -0.007 | Tubastatin A -0.017 | [1] -0.006 | defactinib -0.018 | rucaparib -0.026 | [2] -0.03 | encorafenib 0 | [3] 0.011 | [4] -0.011 | filanesib -0.032 | zotarolimus -0.032 | idasanutlin -0.047 | alisertib -0.097 | [5] 0.007 | gefitinib -0.017 | [6] -0.01 | lapatinib -0.007 | pictilisib -0.044

SFN (UniProt P31947)
inactive: saracatinib -0.074 | sotrastaurin 0.044 | alvocidib -0.017 | Tubastatin A -0.034 | [1] 0.005 | defactinib -0.016 | rucaparib -0.085 | [2] 0.024 | encorafenib -0.054 | [3] 0.001 | [4] -0.114 | filanesib -0.029 | zotarolimus -0.026 | idasanutlin -0.06 | alisertib 0.731 | [5] -0.016 | gefitinib -0.013 | [6] 0.013 | lapatinib -0.073 | pictilisib 0

SEPTIN9 (UniProt Q9UHD8)
inactive: saracatinib -0.032 | sotrastaurin 0.003 | alvocidib -0.048 | Tubastatin A -0.005 | [1] -0.018 | defactinib -0.019 | rucaparib -0.059 | [2] 0.016 | encorafenib -0.005 | [3] 0.017 | [4] -0.035 | filanesib -0.015 | zotarolimus -0.012 | idasanutlin 0.002 | alisertib 0.013 | [5] 0.033 | gefitinib 0.007 | [6] 0.044 | lapatinib -0.038 | pictilisib 0.024

SIRT1 (UniProt Q96EB6)
inactive: saracatinib 0.015 | sotrastaurin -0.012 | alvocidib -0.09 | Tubastatin A 0.042 | [1] 0.04 | defactinib -0.151 | rucaparib 0.007 | [2] 0.04 | encorafenib -0.049 | [3] -0.021 | [4] 0.011 | filanesib -0.006 | zotarolimus 0.018 | idasanutlin 0.161 | alisertib -0.022 | [5] -0.006 | gefitinib -0.035 | [6] -0.062 | lapatinib -0.019 | pictilisib 0.026

SH3GLB1 isoform 2 (UniProt Q9Y371)
inactive: saracatinib -0.15 | sotrastaurin -0.139 | alvocidib -0.083 | Tubastatin A 0.057 | [1] 0.029 | defactinib -0.076 | rucaparib 0.061 | [2] 0.011 | encorafenib 0.132 | [3] 0.031 | [4] 0.035 | filanesib 0.041 | zotarolimus 0.007 | idasanutlin 0.075 | alisertib -0.022 | [5] -0.057 | gefitinib -0.011 | [6] -0.067 | lapatinib 0.031 | pictilisib -0.064

SET isoform 2 (UniProt Q01105)
inactive: saracatinib 0.064 | sotrastaurin 0.024 | alvocidib -0.025 | Tubastatin A 0.016 | [1] -0.011 | defactinib 0.009 | rucaparib -0.019 | [2] 0 | encorafenib -0.004 | [3] 0.024 | [4] 0.037 | filanesib -0.078 | zotarolimus 0.013 | idasanutlin 0.009 | alisertib -0.021 | [5] -0.031 | gefitinib 0.012 | [6] 0.068 | lapatinib 0.008 | pictilisib 0.012

Quoted at random: 2 records from the list
SERGEF (UniProt Q9UGK8)
inactive: saracatinib -0.021 | sotrastaurin -0.025 | alvocidib -0.155 | Tubastatin A -0.064 | [1] 0.008 | defactinib -0.061 | rucaparib -0.156 | [2] 0.151 | encorafenib 0.051 | [3] -0.067 | [4] -0.036 | filanesib -0.043 | zotarolimus 0.091 | idasanutlin -0.068 | alisertib -0.05 | [5] 0.083 | gefitinib -0.004 | [6] 0.015 | lapatinib -0.023 | pictilisib 0.086

SFXN1 (UniProt Q9H9B4)
inactive: saracatinib 0.028 | sotrastaurin -0.026 | alvocidib 0.001 | Tubastatin A -0.017 | [1] -0.022 | defactinib -0.021 | rucaparib -0.02 | [2] -0.028 | encorafenib 0.011 | [3] 0.011 | [4] 0.086 | filanesib -0.11 | zotarolimus 0.009 | idasanutlin -0.097 | alisertib -0.064 | [5] -0.132 | gefitinib 0.003 | [6] 0.018 | lapatinib 0.017 | pictilisib -0.052

Continued:

SEC61A1 (UniProt P61619)
inactive: saracatinib -0.018 | sotrastaurin 0.031 | alvocidib -0.018 | Tubastatin A -0.013 | [1] -0.02 | defactinib -0.014 | rucaparib 0.004 | [2] 0.009 | encorafenib 0.012 | [3] 0.013 | [4] 0.002 | filanesib -0.044 | zotarolimus 0.01 | idasanutlin -0.064 | alisertib 0.061 | [5] 0.013 | gefitinib -0.007 | [6] 0.077 | lapatinib -0.074 | pictilisib 0.063

SIRT6 (UniProt Q8N6T7)
inactive: saracatinib -0.071 | sotrastaurin -0.025 | alvocidib -0.017 | Tubastatin A 0.002 | [1] -0.026 | defactinib -0.07 | rucaparib 0.255 | [2] -0.033 | encorafenib -0.017 | [3] -0.036 | [4] 0.034 | filanesib 0.085 | zotarolimus -0.007 | idasanutlin 0.038 | alisertib -0.046 | [5] 0.004 | gefitinib 0.064 | [6] -0.08 | lapatinib -0.036 | pictilisib 0.036

SF3B1 (UniProt O75533)
inactive: saracatinib -0.051 | sotrastaurin -0.08 | alvocidib -0.055 | Tubastatin A 0.077 | [1] -0.062 | defactinib -0.095 | rucaparib 0.072 | [2] 0.015 | encorafenib 0.036 | [3] -0.046 | [4] 0.08 | filanesib 0.01 | zotarolimus 0.027 | idasanutlin 0.003 | alisertib -0.001 | [5] -0.044 | gefitinib 0.007 | [6] -0.013 | lapatinib 0.038 | pictilisib -0.068
